Source: the supplement of paper PMC10849652
The other results are listed elsewhere or left out.

By UniProt entry, the sequences of proteins in these tests, tags left out. Where a name states a change or a piece, a line headed by the entry shows the natural chain unless it says otherwise.
UniProt Q92733: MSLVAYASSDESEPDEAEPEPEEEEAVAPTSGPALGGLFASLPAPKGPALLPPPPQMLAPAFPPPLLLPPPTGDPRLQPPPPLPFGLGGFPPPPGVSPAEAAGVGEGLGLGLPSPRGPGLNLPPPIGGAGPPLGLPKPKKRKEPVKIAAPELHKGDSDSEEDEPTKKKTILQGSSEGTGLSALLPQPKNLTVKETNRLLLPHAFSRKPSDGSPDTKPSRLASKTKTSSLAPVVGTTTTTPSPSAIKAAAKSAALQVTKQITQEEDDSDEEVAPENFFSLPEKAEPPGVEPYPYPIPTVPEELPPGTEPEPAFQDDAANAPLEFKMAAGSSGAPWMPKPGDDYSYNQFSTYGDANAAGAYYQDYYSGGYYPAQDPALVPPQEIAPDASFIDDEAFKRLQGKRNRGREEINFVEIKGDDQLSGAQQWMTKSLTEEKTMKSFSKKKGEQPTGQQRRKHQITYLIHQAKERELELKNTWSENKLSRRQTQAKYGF
UniProt P41743, whole entry, looked up: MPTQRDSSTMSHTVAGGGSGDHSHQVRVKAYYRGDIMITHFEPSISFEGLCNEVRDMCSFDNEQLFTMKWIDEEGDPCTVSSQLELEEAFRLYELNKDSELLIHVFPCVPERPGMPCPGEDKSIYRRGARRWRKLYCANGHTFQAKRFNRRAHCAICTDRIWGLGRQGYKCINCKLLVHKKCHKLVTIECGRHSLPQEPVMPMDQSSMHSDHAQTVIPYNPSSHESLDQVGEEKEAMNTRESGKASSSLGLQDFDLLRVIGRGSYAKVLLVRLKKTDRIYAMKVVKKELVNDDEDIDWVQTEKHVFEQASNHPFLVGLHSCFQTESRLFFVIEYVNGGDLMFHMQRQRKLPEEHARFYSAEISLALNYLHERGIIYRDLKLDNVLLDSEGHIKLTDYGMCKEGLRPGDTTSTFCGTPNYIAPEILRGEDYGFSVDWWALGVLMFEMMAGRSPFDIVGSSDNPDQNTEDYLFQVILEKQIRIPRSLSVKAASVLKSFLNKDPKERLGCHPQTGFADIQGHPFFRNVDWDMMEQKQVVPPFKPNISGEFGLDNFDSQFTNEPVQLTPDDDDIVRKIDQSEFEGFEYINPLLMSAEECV
UniProt Q9UMS4: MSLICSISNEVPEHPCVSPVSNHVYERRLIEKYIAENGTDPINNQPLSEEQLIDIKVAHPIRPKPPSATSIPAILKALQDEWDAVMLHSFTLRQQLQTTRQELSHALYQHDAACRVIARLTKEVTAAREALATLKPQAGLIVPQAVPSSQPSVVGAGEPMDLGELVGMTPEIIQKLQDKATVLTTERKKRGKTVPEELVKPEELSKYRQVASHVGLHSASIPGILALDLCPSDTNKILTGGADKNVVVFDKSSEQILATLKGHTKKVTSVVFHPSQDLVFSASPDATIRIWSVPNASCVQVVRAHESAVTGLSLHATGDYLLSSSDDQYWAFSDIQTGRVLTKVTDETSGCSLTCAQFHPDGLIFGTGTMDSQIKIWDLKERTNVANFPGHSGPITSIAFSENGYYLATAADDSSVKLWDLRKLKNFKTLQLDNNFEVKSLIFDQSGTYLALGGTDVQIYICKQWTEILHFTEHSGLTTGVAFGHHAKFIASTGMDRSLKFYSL
UniProt P78395, whole entry, looked up: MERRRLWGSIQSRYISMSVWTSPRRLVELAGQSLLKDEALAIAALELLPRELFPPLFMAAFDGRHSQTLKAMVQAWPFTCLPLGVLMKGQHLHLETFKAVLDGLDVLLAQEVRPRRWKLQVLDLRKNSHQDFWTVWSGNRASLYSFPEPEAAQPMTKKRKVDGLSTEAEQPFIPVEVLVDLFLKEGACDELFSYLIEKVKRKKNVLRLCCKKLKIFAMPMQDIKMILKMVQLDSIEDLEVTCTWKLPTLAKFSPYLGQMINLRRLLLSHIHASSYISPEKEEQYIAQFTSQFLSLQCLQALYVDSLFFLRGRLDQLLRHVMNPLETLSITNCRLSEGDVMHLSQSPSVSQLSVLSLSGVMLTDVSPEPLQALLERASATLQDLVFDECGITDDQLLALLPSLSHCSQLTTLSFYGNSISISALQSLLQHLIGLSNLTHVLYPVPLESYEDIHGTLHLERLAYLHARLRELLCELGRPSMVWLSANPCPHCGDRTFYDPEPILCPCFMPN
UniProt Q06830: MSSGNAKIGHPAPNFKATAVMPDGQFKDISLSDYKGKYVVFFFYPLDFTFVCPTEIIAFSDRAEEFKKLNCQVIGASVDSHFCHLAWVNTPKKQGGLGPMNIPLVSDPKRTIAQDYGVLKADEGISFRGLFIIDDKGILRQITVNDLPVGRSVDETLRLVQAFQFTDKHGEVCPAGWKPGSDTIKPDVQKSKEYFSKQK
UniProt P50336: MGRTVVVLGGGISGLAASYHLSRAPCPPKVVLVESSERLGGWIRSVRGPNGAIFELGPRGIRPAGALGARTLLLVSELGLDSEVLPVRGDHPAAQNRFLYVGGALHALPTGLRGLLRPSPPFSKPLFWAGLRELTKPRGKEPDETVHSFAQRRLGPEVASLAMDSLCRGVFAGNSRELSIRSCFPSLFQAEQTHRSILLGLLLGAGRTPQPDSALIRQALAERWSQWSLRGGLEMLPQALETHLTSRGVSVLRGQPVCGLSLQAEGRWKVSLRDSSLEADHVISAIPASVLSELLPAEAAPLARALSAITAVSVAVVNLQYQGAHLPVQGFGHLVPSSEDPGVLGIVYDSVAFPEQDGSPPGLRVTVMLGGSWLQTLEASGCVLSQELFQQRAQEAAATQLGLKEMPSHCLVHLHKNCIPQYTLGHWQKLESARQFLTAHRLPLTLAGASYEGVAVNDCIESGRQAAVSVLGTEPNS
UniProt P53041: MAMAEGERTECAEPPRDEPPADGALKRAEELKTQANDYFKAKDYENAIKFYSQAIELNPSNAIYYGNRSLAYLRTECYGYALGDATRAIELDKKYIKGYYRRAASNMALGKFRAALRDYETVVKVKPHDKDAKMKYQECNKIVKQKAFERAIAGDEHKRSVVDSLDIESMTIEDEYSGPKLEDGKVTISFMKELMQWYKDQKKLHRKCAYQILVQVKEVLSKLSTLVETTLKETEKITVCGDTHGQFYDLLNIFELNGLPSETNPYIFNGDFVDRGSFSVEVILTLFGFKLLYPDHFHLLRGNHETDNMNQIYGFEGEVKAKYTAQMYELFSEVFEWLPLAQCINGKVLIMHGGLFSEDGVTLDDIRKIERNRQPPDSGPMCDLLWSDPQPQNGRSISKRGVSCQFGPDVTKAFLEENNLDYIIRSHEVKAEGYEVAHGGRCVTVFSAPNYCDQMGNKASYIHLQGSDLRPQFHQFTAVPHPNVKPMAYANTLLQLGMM
UniProt Q9BZL4: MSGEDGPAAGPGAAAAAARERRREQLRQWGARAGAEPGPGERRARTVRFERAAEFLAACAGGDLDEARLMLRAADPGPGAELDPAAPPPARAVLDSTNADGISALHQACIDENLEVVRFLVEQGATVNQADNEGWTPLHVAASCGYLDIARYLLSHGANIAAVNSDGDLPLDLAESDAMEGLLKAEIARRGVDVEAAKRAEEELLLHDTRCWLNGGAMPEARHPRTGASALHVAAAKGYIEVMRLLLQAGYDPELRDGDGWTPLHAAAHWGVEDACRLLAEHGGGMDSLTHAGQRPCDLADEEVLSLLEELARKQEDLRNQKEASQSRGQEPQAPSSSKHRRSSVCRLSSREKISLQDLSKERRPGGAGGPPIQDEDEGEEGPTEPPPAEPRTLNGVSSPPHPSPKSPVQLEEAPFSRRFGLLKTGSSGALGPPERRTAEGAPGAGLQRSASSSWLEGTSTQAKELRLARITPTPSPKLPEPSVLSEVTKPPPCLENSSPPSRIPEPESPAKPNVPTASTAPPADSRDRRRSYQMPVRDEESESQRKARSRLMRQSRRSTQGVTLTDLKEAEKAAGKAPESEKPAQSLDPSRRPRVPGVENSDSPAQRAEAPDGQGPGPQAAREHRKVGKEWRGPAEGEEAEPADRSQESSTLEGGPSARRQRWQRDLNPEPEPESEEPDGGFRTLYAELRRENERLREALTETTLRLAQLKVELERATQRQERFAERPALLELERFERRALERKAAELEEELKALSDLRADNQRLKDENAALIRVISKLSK
UniProt P14314: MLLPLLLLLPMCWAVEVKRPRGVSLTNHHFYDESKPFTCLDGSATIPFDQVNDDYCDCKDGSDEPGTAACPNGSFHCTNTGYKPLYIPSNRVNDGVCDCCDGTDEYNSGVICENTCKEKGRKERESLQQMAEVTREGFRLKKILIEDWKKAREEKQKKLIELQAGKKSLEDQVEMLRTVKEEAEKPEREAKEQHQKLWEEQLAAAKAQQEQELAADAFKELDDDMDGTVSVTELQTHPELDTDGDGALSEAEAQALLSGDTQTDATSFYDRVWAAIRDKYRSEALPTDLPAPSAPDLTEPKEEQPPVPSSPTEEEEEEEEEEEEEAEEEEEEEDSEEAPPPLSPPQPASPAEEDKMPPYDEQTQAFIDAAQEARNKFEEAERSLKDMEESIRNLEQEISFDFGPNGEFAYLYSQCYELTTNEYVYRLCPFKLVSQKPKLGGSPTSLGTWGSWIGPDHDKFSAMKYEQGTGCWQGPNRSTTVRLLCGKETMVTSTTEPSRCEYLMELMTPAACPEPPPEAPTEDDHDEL
UniProt P63098, whole entry, looked up: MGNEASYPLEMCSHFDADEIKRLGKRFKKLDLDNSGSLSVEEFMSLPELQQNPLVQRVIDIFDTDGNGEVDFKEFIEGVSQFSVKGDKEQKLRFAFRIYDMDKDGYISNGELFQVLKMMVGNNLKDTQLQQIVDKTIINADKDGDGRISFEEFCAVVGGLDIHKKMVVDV
UniProt Q969Q6: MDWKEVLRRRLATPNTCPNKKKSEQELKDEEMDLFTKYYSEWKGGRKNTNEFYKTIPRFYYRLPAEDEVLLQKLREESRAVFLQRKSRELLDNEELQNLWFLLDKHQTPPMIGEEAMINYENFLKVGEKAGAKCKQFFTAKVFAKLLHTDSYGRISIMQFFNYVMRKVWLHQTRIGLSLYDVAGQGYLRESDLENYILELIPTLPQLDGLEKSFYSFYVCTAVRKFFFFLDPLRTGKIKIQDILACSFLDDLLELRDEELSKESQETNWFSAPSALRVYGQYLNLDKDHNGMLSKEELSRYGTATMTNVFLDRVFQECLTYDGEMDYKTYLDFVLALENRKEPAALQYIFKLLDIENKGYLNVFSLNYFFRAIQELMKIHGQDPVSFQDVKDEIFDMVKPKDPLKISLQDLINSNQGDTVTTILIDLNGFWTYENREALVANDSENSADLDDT
UniProt Q5MIZ7: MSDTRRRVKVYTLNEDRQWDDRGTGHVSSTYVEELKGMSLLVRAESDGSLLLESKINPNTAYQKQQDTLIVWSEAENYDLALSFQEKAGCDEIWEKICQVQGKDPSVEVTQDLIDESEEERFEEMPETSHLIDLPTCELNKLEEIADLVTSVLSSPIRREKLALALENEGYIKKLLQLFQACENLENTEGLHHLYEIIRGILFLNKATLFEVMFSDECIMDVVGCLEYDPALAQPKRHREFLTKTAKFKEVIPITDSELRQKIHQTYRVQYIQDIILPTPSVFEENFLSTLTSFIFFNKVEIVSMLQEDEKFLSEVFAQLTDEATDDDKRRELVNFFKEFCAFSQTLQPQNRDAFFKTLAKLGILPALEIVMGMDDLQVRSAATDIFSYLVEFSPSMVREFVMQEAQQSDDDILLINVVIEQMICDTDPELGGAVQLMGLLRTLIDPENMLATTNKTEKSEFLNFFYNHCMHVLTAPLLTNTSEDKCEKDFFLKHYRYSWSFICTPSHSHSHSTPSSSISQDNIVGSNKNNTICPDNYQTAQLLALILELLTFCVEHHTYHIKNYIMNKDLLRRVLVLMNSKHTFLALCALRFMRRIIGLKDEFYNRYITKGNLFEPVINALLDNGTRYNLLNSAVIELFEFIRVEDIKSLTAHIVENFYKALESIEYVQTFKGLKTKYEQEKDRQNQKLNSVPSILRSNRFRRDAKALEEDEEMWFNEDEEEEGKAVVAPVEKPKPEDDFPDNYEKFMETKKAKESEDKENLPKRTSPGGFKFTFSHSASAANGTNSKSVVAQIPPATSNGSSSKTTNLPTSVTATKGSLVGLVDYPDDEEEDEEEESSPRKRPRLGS
UniProt P30405: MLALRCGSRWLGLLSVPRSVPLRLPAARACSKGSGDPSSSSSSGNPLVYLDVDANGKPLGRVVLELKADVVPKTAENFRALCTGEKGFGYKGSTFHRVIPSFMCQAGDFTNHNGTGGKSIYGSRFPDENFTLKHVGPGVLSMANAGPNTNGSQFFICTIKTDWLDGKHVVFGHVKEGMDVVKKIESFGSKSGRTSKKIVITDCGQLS
UniProt Q9UNN8: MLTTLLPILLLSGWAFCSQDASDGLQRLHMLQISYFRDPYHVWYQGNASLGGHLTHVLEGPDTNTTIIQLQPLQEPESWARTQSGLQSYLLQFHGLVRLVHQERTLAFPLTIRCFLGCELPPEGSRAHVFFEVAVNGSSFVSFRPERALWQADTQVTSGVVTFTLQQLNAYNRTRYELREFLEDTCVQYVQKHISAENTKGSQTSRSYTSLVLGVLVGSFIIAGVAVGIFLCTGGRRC

How the values were obtained:
Experiment in all cases: log2 fold change, soluble protein after heating vs DMSO (PISA); higher = thermal stabilisation; K562 lysate, 10 uM; active = over 0.2 and 3.5 SD of the protein, either way, in both replicates (recomputed)
alvocidib = compound: CN1CC[C@H](c2c(O)cc(O)c3c(=O)cc(-c4ccccc4Cl)oc23)[C@H](O)C1 [alvocidib]
Outline: (§1)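 Soluble protein was defined as the supernatant remaining after 21,000xg for 90 min, following pooling of heated aliquots and adjustment to 0.5% NP-40 at 4°C. Before that, crude K562 extract at 1 mg/mL protein in PBS pH 7.4 with 1 mM MgCl2 was treated with 10 μM compound for 30 min and heated for 3 min across 48°C-58°C. Quantification used TMTpro 16plex LC-MS/MS with channel sums equalised, and values are log-two fold changes in thermal stability relative to solvent controls from duplicates.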

Tubastatin A = compound: CN1CCc2c(c3ccccc3n2Cc2ccc(C(=O)NO)cc2)C1 [Tubastatin A]
Outline: as §1

[1] = compound: CNC(=O)C1=CC=CC=C1NC2=NC(=NC=C2Cl)NC3=C(C=C(C=C3)N4CCOCC4)OC
Outline: as §1

defactinib = compound: CNC(=O)c1ccc(Nc2ncc(C(F)(F)F)c(NCc3nccnc3N(C)S(C)(=O)=O)n2)cc1 [defactinib]
Outline: as §1

[2] = compound: CNc1nc(-c2ccc3c(N)n[nH]c3c2)cc(N2C[C@@H](C(=O)NC3CCCCC3)CC[C@H]2C)n1
Outline: as §1

encorafenib = compound: COC(=O)N[C@@H](C)CNc1nccc(-c2cn(C(C)C)nc2-c2cc(Cl)cc(NS(C)(=O)=O)c2F)n1 [encorafenib]
Outline: as §1

[3] = compound: COC(=O)[C@H](CCSC)NC(=O)C1=C(C=C(C=C1)NC[C@H](CS)N)C2=CC=CC=C2
Outline: as §1

alisertib = compound: COc1cc(Nc2ncc3c(n2)-c2ccc(Cl)cc2C(c2c(F)cccc2OC)=NC3)ccc1C(=O)O [alisertib]
Outline: as §1

[4] = compound: COc1cc2nc(-c3cc(F)ccc3O)nc(N[C@@H]3CNC[C@H]3C(C)(C)O)c2cc1OC
Outline: as §1

gefitinib = compound: COc1cc2ncnc(Nc3ccc(F)c(Cl)c3)c2cc1OCCCN1CCOCC1 [gefitinib]
Outline: as §1

Measured: log2 fold change

PPWD1 (UniProt Q96BP3)
inactive: alvocidib 0.019 | Tubastatin A 0.009 | [1] 0.016 | defactinib 0.001 | [2] 0.02 | encorafenib 0.009 | [3] 0.005 | alisertib 0.003 | [4] -0.001 | gefitinib -0.01

PRCC (UniProt Q92733)
inactive: alvocidib -0.005 | Tubastatin A 0.007 | [1] 0.028 | defactinib 0.048 | [2] 0.029 | encorafenib -0.03 | [3] 0.078 | alisertib -0.026 | [4] -0.022 | gefitinib 0.028

PRPF40A (UniProt O75400)
inactive: alvocidib -0.02 | Tubastatin A -0.004 | [1] -0.014 | defactinib 0.014 | [2] 0.025 | encorafenib 0.081 | [3] -0.023 | alisertib -0.007 | [4] -0.02 | gefitinib -0.02

PROS1 (UniProt P07225)
inactive: alvocidib -0.033 | Tubastatin A -0.007 | [1] 0.027 | defactinib 0.019 | [2] -0.012 | encorafenib 0.027 | [3] -0.056 | alisertib 0.029 | [4] 0.02 | gefitinib -0.023

PRKCI (UniProt P41743)
inactive: alvocidib 0.008 | Tubastatin A -0.029 | [1] 0.017 | defactinib -0.058 | [2] 0.002 | encorafenib 0.018 | [3] 0.015 | alisertib 0.005 | [4] 0.005 | gefitinib 0.041

PRPF19 (UniProt Q9UMS4)
inactive: alvocidib 0.006 | Tubastatin A -0.018 | [1] 0.024 | defactinib 0.022 | [2] -0.047 | encorafenib 0.019 | [3] -0.208 | alisertib 0.016 | [4] -0.009 | gefitinib -0.036

PRKAA1 isoform 2 (UniProt Q13131)
inactive: alvocidib 0.134 | Tubastatin A -0.066 | [1] 0.186 | defactinib 0.166 | [2] -0.107 | encorafenib -0.035 | [3] -0.086 | alisertib 0.022 | [4] 0.089 | gefitinib -0.041

PRAME (UniProt P78395)
inactive: alvocidib 0.034 | Tubastatin A -0.111 | [1] 0.024 | defactinib 0.006 | [2] -0.006 | encorafenib -0.001 | [3] 0.13 | alisertib 0.014 | [4] 0.009 | gefitinib -0.007

PRDX1 (UniProt Q06830)
inactive: alvocidib -0.027 | Tubastatin A 0.024 | [1] 0.028 | defactinib -0.011 | [2] 0.027 | encorafenib -0.04 | [3] -0.041 | alisertib 0.001 | [4] 0.021 | gefitinib -0.049

PPOX (UniProt P50336)
inactive: alvocidib -0.004 | Tubastatin A -0.124 | [1] 0.257 | defactinib -0.03 | [2] 0.107 | encorafenib -0.017 | [3] 0.076 | alisertib 0.005 | [4] -0.035 | gefitinib -0.043

PRKAG1 (UniProt P54619)
inactive: alvocidib 0.047 | Tubastatin A -0.024 | [1] 0.182 | defactinib 0.116 | [2] -0.032 | encorafenib -0.016 | [3] -0.08 | alisertib 0 | [4] 0.099 | gefitinib -0.01

PPIG (UniProt Q13427)
inactive: alvocidib -0.071 | Tubastatin A -0.003 | [1] -0.09 | defactinib -0.077 | [2] 0.042 | encorafenib 0.126 | [3] -0.004 | alisertib -0.035 | [4] 0.021 | gefitinib -0.069

PPP5C (UniProt P53041)
inactive: alvocidib -0.03 | Tubastatin A 0.019 | [1] -0.02 | defactinib -0.016 | [2] 0.03 | encorafenib 0.001 | [3] -0.039 | alisertib 0.002 | [4] 0.003 | gefitinib -0.012

PRPF18 (UniProt Q99633)
inactive: alvocidib -0.004 | Tubastatin A -0.029 | [1] 0.016 | defactinib 0.008 | [2] -0.007 | encorafenib -0.014 | [3] -0.163 | alisertib -0.034 | [4] 0.017 | gefitinib 0.029

PPP1R12C isoform 4 (UniProt Q9BZL4)
inactive: alvocidib 0.012 | Tubastatin A -0.031 | [1] 0.035 | defactinib -0.005 | [2] -0.003 | encorafenib -0.015 | [3] -0.022 | alisertib -0.11 | [4] 0.012 | gefitinib 0.119

PRKCSH (UniProt P14314)
inactive: alvocidib 0.009 | Tubastatin A 0.039 | [1] -0.001 | defactinib -0.014 | [2] -0.035 | encorafenib -0.003 | [3] -0.036 | alisertib -0.006 | [4] 0.024 | gefitinib 0.024

PPP3R1 (UniProt P63098)
inactive: alvocidib 0.019 | Tubastatin A -0.006 | [1] 0.021 | defactinib 0.043 | [2] 0.05 | encorafenib 0.009 | [3] -0.062 | alisertib -0.022 | [4] 0.018 | gefitinib 0.024

PPP1R9A isoform 3 (UniProt Q9ULJ8)
inactive: alvocidib -0.029 | Tubastatin A 0.059 | [1] 0.029 | defactinib 0.194 | [2] 0.011 | encorafenib -0.049 | [3] 0.09 | alisertib 0.047 | [4] 0.002 | gefitinib 0.051

PPP2R5E (UniProt Q16537)
inactive: alvocidib 0.029 | Tubastatin A 0.024 | [1] 0.07 | defactinib -0.028 | [2] 0.024 | encorafenib 0.007 | [3] 0.043 | alisertib 0.015 | [4] 0.01 | gefitinib -0.036

PPP2R3C (UniProt Q969Q6)
inactive: alvocidib -0.018 | Tubastatin A -0.145 | [1] -0.046 | defactinib 0.072 | [2] 0.081 | encorafenib 0.105 | [3] 0.013 | alisertib 0.069 | [4] -0.23 | gefitinib 0.105

PRKAB2 (UniProt O43741)
inactive: alvocidib -0.122 | Tubastatin A -0.016 | [1] 0.286 | defactinib 0.057 | [2] 0.062 | encorafenib -0.04 | [3] -0.09 | alisertib -0.062 | [4] 0.058 | gefitinib -0.126

PPP4R3B (UniProt Q5MIZ7)
inactive: alvocidib -0.03 | Tubastatin A -0.072 | [1] 0 | defactinib -0.001 | [2] 0 | encorafenib -0.001 | [3] 0.078 | alisertib -0.013 | [4] 0.001 | gefitinib 0.006

PRIM2 (UniProt P49643)
inactive: alvocidib -0.008 | Tubastatin A -0.138 | [1] 0.033 | defactinib -0.01 | [2] 0.009 | encorafenib -0.002 | [3] 0.035 | alisertib -0.017 | [4] -0.009 | gefitinib 0.01

PPIF (UniProt P30405)
inactive: alvocidib -0.046 | Tubastatin A 0.041 | [1] -0.013 | defactinib -0.009 | [2] 0.064 | encorafenib -0.03 | [3] -0.024 | alisertib 0.009 | [4] 0.024 | gefitinib 0.004

PRORP (UniProt O15091)
inactive: alvocidib -0.05 | Tubastatin A -0.159 | [1] -0.042 | defactinib 0 | [2] -0.015 | encorafenib -0.012 | [3] 0.152 | alisertib 0.199 | [4] -0.046 | gefitinib -0.054

PRIM1 (UniProt P49642)
inactive: alvocidib 0 | Tubastatin A -0.11 | [1] 0.023 | defactinib -0.012 | [2] 0.033 | encorafenib 0.052 | [3] 0.041 | alisertib -0.054 | [4] -0.019 | gefitinib -0.008

PPM1F (UniProt P49593)
inactive: alvocidib 0.003 | Tubastatin A 0.058 | [1] 0 | defactinib 0.005 | [2] -0.067 | encorafenib 0.001 | [3] 0.054 | alisertib 0.021 | [4] -0.002 | gefitinib -0.014

Two neighbouring records out of the list so far, quoted:
PRIM2 (UniProt P49643)
inactive: alvocidib -0.008 | Tubastatin A -0.138 | [1] 0.033 | defactinib -0.01 | [2] 0.009 | encorafenib -0.002 | [3] 0.035 | alisertib -0.017 | [4] -0.009 | gefitinib 0.01

PPIF (UniProt P30405)
inactive: alvocidib -0.046 | Tubastatin A 0.041 | [1] -0.013 | defactinib -0.009 | [2] 0.064 | encorafenib -0.03 | [3] -0.024 | alisertib 0.009 | [4] 0.024 | gefitinib 0.004

(cont.)

PROCR (UniProt Q9UNN8)
inactive: alvocidib -0.025 | Tubastatin A 0.035 | [1] 0.008 | defactinib 0.087 | [2] -0.138 | encorafenib -0.052 | [3] 0.027 | alisertib 0.061 | [4] -0.04 | gefitinib 0.223

PPP3CA isoform 2 (UniProt Q08209)
inactive: alvocidib 0.043 | Tubastatin A 0.017 | [1] 0.033 | defactinib 0.101 | [2] 0.01 | encorafenib 0.023 | [3] 0 | alisertib 0.061 | [4] -0.001 | gefitinib 0.09
